Patent US20250122301A1 (IBIO, published 2025)
Results are given in words; binding and its absence hold for the method and conditions named. Some binding calls cover weakened binding; strength is not graded here.

The chains behind the UniProt entries cited, without tags or fusion partners. Residues count along the entry.
UniProt P01589, residues 22-213: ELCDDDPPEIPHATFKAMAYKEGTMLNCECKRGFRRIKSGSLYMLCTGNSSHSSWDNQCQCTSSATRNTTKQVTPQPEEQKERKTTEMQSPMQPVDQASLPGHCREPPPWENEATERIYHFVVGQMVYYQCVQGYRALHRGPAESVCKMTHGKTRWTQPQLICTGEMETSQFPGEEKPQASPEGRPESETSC

Legend:
[1] = target: full-length CD25 (human CD25, recombinant protein used on biosensors) (human) (UniProt P01589); test: BLI (Octet) cross block: CD25 on tip, Fab step, then IL-2 step
[2] = target: full-length CD25 (human CD25, recombinant protein used on biosensors) (human) (UniProt P01589); test: BLI (Octet): 7G7B6 on tip, CD25 captured, then Fab or Basiliximab, then buffer
[3] = target: full-length CD25 (human CD25, recombinant protein used on biosensors) (human) (UniProt P01589); test: Octet, CD25 captured on 7G7B6-coated tip, then Fab

Measured: binding

B1: D5 Fab (Fab, V domains shown)
VH: HVQLQQSGAELVRPGTSVKISCKASGYTFTNYWLGWVKQRPGHGLEWIGDIYPGGGYTNYNEKFKGKATLTADTSSSTAYMQLSSLTSEDSAVYFCARVTPASWGQGTSLTVSS
VL: DIVMTQSQKFMSTSVGDRVSVTCKASQNVGTNVAWYQQKPGQSPKALIYSASYRYSGVPDRFTGSGSGTDFTLTISNVQSEDLAEYFCQQYNSYPYTFGGGTKLEMK
notes: Fab from mouse immune phage library, expressed in E. coli; also called Fab clone D5
binds: all assays above
